We go through one substance from paper PMC6042370.

In this assay the target is T1, FLAG-ATF2 (ATF2-WT) (human (cDNA from a 293T library)) (UniProt P15336).
T1 sequence: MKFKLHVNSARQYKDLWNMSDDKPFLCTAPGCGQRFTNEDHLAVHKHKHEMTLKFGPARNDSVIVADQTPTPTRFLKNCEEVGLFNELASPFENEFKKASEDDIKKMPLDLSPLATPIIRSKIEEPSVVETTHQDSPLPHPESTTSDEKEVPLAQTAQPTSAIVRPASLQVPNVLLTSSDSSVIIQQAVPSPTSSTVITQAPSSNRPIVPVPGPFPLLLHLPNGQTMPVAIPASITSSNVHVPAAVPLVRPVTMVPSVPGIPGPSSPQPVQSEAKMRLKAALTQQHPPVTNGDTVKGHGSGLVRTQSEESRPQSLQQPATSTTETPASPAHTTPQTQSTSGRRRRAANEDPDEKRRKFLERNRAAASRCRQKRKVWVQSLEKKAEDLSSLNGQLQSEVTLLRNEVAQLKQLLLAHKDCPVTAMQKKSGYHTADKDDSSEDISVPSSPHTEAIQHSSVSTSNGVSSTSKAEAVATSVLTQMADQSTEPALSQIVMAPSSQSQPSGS
Kind of assay: co-IP; 293T cells co-transfected, lysed 24 h later in BC100 buffer; anti-FLAG M2 agarose overnight, elution with FLAG peptide, Western blot.

These are yes or no findings as the source states them, for the method shown. In cells and extracts the contact can be indirect. Binding can be weak; no strength is given. Sequences can lack the tags named with a protein.

Turning to SPOP-ΔBTB (domain or fragment), the binding entry is on record as “binds”.
